Data taken from ChEMBL document CHEMBL3988442, “University of Dundee, Small-Polar-MMV Screening Library” (2021).

Chains of the proteins cited; added tags and fusions are not shown.
UniProt E9BF75, entry or part of it: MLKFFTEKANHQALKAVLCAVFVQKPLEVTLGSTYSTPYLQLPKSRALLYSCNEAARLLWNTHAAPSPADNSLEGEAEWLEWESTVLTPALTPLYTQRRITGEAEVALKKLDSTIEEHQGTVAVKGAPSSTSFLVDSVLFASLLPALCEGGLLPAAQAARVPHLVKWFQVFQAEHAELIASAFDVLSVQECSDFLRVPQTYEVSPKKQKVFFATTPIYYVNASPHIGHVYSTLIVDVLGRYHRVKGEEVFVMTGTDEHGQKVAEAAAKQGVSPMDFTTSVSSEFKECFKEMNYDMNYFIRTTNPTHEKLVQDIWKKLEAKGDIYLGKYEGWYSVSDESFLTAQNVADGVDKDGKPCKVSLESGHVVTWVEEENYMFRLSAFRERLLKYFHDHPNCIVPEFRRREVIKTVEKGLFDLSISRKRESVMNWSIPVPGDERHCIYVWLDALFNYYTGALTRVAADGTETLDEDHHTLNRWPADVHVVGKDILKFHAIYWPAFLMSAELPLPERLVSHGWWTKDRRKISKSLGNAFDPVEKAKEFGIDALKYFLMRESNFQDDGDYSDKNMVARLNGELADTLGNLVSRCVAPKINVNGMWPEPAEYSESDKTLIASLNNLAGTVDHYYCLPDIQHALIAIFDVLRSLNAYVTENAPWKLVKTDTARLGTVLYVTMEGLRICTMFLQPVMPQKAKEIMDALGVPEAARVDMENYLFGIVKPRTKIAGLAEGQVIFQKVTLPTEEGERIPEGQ

LdMetRS: 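Primary screen of methionyl-tRNA synthetase; the read-out is not stated. Target: Methionyl-tRNA synthetase (putative), Leishmania donovani (UniProt E9BF75). The test concentration is not given. The values are filed as inhibition. Of about 68,000 compounds tested this way, about 24 (0.035%) reached 50% or more in at least one test.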
Mtb heat-shock: 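Assay on Mycobacterium tuberculosis, filed only as a heat shock assay from Cornell; the read-out is not stated. The concentration is filed as 10 mM, unlikely as a test dose, so the dose is not known. Higher reads as stronger inhibition (inferred: compounds with an IC50 in retests scored well above the rest). Size under these conditions: about 69,000 compounds, about 930 of them at 50% or above in at least one test.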

Results are percentages, as filed. The record does not define 0% and 100%; most values in the screen are far below 50% and negative numbers occur (in some assays of this library far below -100). This is an unselected part of the compounds tested. A dash means the value is not listed here; it may have been measured.

SMILES | LdMetRS | Mtb heat-shock
COc1ccccc1-c1noc(CN2CCCC2Cn2cccn2)n1 (stereo not given) | 15.38% | 2.259%
CC(C)CCN1CCc2cc(C(=O)N(C)C)c(NCC3CC3)nc2CC1.O=C(O)C(F)(F)F.O=C(O)C(F)(F)F | - | -33.33%
COc1ccc(-c2n[nH]cc2CN(C)Cc2nccn2C)c(F)c1 | 12.45% | -5.49%
O=C(Nc1cnc(C2CC2)nc1)N1CCC(CN2CCCC2)C1 (stereo not given) | 9.157% | 16.63%
CCOc1ccccc1CN1CCc2nc3ccsc3c(=O)n2CC1 | 12.3% | -
Cn1cc(CNc2nc3cc(Cl)ccc3n2C)cn1 | 8.009% | 7.104%
Cl.NCC1CCC(c2c(C(=O)NCCO)sc3ccccc23)CC1 (stereo not given) | - | 85.23%
N#Cc1ccc(CN2CCC(CCc3ccc(O)cc3)CC2)cc1 | 7.971% | 22.88%
O=C(O)C(F)(F)F.O=C1CCC2(CCCN(C(=O)Cc3cccnc3)C2)N1 (stereo not given) | - | 13.12%
O=S(=O)(NCc1ccccc1)N(Cc1ccccn1)CC1CCCO1 (stereo not given) | 10.74% | 10.98%
Cc1nnc2n1CCN(C(=O)C1CCN(Cc3ccccc3)CC1)C2 | 2.241% | -8.176%
[H][C@@]12COC[C@]1([H])[C@@H](OC)CN2C(=O)c1ccnnc1 | - | -10.57%
CC(C)n1ncc2c1NC(=O)C(C#N)C21CCCCC1 (stereo not given) | 17.96% | -17.57%
COc1ccc(-n2ncc3c2NC(=O)CSC3C(C)C)cc1 (stereo not given) | 15.97% | -2.888%
CCn1nc(C)cc1C(=O)N1C[C@@H](CN(C)C)[C@@H](CO)C1 | 19.68% | 11.82%
O=C(Nc1cccnc1)C1Cc2nc(-c3ccsc3)sc2N1CC1CC1 (stereo not given) | 9.589% | -
CNC(=O)c1nc(CN2CCOC(Cc3ccc(F)cc3)C2)no1 (stereo not given) | 9.409% | -5.92%
COc1cccnc1NC(=O)c1ccc(COCC(F)(F)F)cc1 | 12.91% | 20.7%
COC(=O)c1cc2c(=O)n(C3CCCC3)ccc2nc1C | 14.85% | -29.99%
Cc1ncsc1CN1C[C@@H](O)[C@](O)(CNC(=O)c2ccccn2)C1 | 8.981% | -4.022%
COCCC(=O)NCC1Cn2nnc(-c3cccc(F)c3)c2CO1 (stereo not given) | 14.07% | 0.9895%
Cc1nc(CNC(=O)NCC(O)c2ccc(F)cc2F)cs1 (stereo not given) | 12.59% | -2.877%
CCCc1cc(NCc2ccc(CO)cc2)n2nccc2n1 | 11.96% | -11.6%
CC(C)NC(=O)c1cc(Br)cc(S(=O)(=O)N2CCOCC2)c1F | 14.54% | 14.22%
Cc1ccnn1C(C)C(=O)Nc1cc(-c2ccncc2)[nH]n1 (stereo not given) | 18.8% | -11.79%
CC(NC(=O)N1CCC(OCc2ccccc2)CC1)c1nncn1C (stereo not given) | 15.38% | -11.81%
Cc1nccc(CNC(=O)Nc2cc(C(F)(F)F)c[nH]c2=O)n1 | 18.41% | 9.046%
COc1ccc(C(=O)CNC(=O)c2nc(Cl)sc2C(C)C)cc1 | 10.19% | -6.677%
Cc1cncnc1C1CCN(C(=O)CN(C)C)CC1 | 7.874% | 20.6%
CNC(=O)CN1CCC(c2nn(C)c(=O)n2-c2ccccc2)CC1 | 11.59% | 10.97%
O=C(O)C(F)(F)F.O=C1COC2(CCN(C(=O)C3CC=CC3)CC2)CN1Cc1cccnc1 | - | -29.72%
CSCCC1c2nc[nH]c2CCN1Cc1cc(Cl)ccc1O (stereo not given) | 12.68% | 106.2%
Cc1noc(C)c1CN1CC2(CCN(Cc3c[nH]cn3)CC2)CC1=O | 11.17% | -20.3%
O=C(CCC(=O)N1CCC(c2noc3cc(F)ccc23)CC1)NC1CC1 | 1.897% | 83.45%
O=C(NC[C@H]1OC[C@@H](NC2CCOCC2)[C@@H]1O)Nc1ccccc1 | -0.339% | -30.71%
c1cnc(N2Cc3nccn3CC(COc3cccnc3)C2)nc1 (stereo not given) | 5.753% | -
CCCn1nc(C)c2c(C(F)F)cc(=O)n(CC(=O)O)c21 | 28.89% | -4.02%
CC(C)NC(=O)C1(CC2CC(c3ccc(F)cc3)=NO2)CCNCC1.O=C(O)CC(O)(CC(=O)O)C(=O)O (stereo not given) | - | -19.28%
CCN1CCOCC12CCN(C(=O)Cc1cccs1)CC2 | 8.271% | -
OC1(CNCCCN2CCc3ccccc32)CCNC1 (stereo not given) | 17.16% | -2.66%
COc1ccc(CN2C[C@H]3CN(C(=O)c4ccno4)CCN3C2=O)cc1 | 9.89% | -
Cn1cc(CNCCc2cccnc2)c(-c2cccnc2)n1 | -3.064% | -29.1%
O=C(NCc1cccs1)c1nc2c(o1)CN(CC1CC1)C2 | 7.527% | -
COc1ccc(CNCC2CC2)cc1F | 2.857% | 6.083%
Cc1ccc(-n2ncc(C(=O)NC3CC(C)(C)NC(C)(C)C3)c2N)cc1 | -1.389% | 21.77%
CCCc1noc(CN2CCCC2c2noc(C3CC3)n2)n1 (stereo not given) | 16.87% | -1.97%
Cn1nc(COc2cccnc2)c2c1CCN(c1cnccn1)C2.O=CO.O=CO | - | 1.293%
Cc1nc(CN2C(=O)COC3(CCN(Cc4ccsc4)CC3)C2C)cs1.O=C(O)C(F)(F)F (stereo not given) | - | -25.28%

Some entries from above, unchanged:

SMILES,LdMetRS,Mtb heat-shock
CC(C)CCN1CCc2cc(C(=O)N(C)C)c(NCC3CC3)nc2CC1.O=C(O)C(F)(F)F.O=C(O)C(F)(F)F,-,-33.33%
CSCCC1c2nc[nH]c2CCN1Cc1cc(Cl)ccc1O (stereo not given),12.68%,106.2%
COc1ccccc1-c1noc(CN2CCCC2Cn2cccn2)n1 (stereo not given),15.38%,2.259%
COc1ccc(-c2n[nH]cc2CN(C)Cc2nccn2C)c(F)c1,12.45%,-5.49%